From paper PMC7884074
Results are given in words; binding and its absence hold for the method and conditions named. In cells and extracts the contact can be indirect. Binding calls can cover weak binding; strength is not graded here. Sequences can lack the tags named with a protein.

Tests used:
[1] = biological target: T1, SNPC-4::3xFlag (C. elegans) (UniProt P91868); assay: co-IP; anti-Flag IP of SNPC-4::3xFlag from worm lysate, western blot with anti-Ollas; the sample collected during oogenesis (gravid worms) alone; benzonase-treated lysate, 150 mM NaCl, 0.1% NP-40, 4°C, FLAG peptide elution
T1 sequence: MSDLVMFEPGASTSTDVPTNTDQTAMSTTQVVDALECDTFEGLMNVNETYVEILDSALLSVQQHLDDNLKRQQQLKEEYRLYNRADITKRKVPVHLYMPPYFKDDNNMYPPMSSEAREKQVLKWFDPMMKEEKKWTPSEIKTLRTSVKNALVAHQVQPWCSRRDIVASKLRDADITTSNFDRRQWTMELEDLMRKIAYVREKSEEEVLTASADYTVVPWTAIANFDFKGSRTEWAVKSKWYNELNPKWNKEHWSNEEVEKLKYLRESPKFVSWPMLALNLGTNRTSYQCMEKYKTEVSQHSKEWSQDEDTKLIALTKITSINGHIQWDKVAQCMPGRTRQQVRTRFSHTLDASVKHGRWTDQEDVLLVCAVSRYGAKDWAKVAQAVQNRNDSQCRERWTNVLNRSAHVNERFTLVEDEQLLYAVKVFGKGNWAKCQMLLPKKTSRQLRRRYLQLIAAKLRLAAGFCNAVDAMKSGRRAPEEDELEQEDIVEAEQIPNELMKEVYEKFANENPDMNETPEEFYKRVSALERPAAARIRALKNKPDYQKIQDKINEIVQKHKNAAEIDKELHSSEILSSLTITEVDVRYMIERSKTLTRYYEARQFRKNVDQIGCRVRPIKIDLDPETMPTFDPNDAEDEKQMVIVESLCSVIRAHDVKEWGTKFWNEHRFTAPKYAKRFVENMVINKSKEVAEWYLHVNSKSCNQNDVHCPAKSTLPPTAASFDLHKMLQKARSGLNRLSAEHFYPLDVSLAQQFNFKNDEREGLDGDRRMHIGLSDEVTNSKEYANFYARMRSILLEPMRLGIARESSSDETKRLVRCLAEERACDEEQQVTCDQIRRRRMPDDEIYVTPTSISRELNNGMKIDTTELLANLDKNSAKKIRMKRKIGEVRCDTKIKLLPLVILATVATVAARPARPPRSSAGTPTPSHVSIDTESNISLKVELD

[2] = biological target: T1, SNPC-4::3xFlag (C. elegans); assay: co-IP; anti-Flag IP of SNPC-4::3xFlag from worm lysate, western blot with anti-Ollas; worms collected during spermatogenesis (L4) and oogenesis (gravid); benzonase-treated lysate, 150 mM NaCl, 0.1% NP-40, 4°C, FLAG peptide elution

binding [1]: binds weakly
binding [2]: binds
Substance: SNPC-1.3::Ollas (C. elegans)
